Source: the supplement of paper PMC7877785
± gives the uncertainty stated by the source. The uncertainty is large for many entries.

Assay: self-splicing fitness, log relative to wild type (ln ratio); higher = more splicing; Tetrahymena group I intron in knt gene, E. coli kanamycin selection, DiMSum; sequences stand for … in CUCUCU…GGAGGGAAAAGUUAUCAGGCAUGCACCUGGUAGCUAGUCUUUAAACCAAUAGAUUGCAUCGGUUUAAAAGGCAAGACCGUCAAAUUGCGGGAAAGGGGUCAACAGCCGUUCAGUACCAAGUCUCAGGGGAAACUUUGAGAUGGCCUUGCAAAGGGUAUGGUAAUAAGCUGACGGACAUGGUCCUAACCACGCAGCCAAGUCCUAAGUCAACAGAUCUUCUGUUGAUAUGGAUGCAGUUCACAGACUAAAUGUCGGUCGGGGAAGAUGUAUUCUUCUCAUAAGAUAUAGUCGGACCUCUCCUUAAUGGGAGCUAGCGGAUGAAGUGAUGCAACACUGGAGCCGCUGGGAACUAAUUUGUAUGCGAAAGUAUAUUGAUUAGUUUUGGAGUACUCGUGGUCG
Summary of the method: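 DiMSum derived fitness as the error-weighted combination of fold changes across replicates, kanamycin versus no kanamycin, normalised to wild type. E. coli BL21(DE3) held the library, which randomised all eight P1ex-region intron nucleotides within the knt kanamycin-resistance gene on pET-22b(+). Six replicate transformations grew overnight at 37°C or 30°C on LB agar with or without 25 μg/mL kanamycin, also containing 100 μg/mL carbenicillin, 50 μM IPTG and 0.2% rhamnose, and pooled colonies were amplicon-sequenced on an Illumina HiSeq 2500.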

Sequence | self-splicing fitness (ln) (30 °C) | self-splicing fitness (ln) (37 °C)
GUAGAGCAAUAUUACGGCUG | -1.04 ± 0.13 | -0.584 ± 0.14
UUGGAGCAAUAUUACGUGAU | -3.31 ± 1 | -1.47 ± 1.2
AUGGAGCAAUAUUACGCACG | -2.3 ± 0.3 | -1.26 ± 0.34
CUGAAGCAAUAUUACGGCAC | -3.16 ± 1 | -1.45 ± 0.55
UAUGAGCAAUAUUACGCUCU |  | -2.05 ± 0.52
CACUAGCAAUAUUACGGAAC | -4.76 ± 0.59 | 
UAGGAGCAAUAUUACGCACC | -2.65 ± 1.1 | -2.86 ± 0.75
CCAUAGCAAUAUUACGGCCC |  | -1.94 ± 0.57
UAUUAGCAAUAUUACGAAAC | -4.01 ± 0.73 | 
UUAGAGCAAUAUUACGGAAG |  | -1.61 ± 0.53
GUGUAGCAAUAUUACGCAGA | -2.02 ± 1.2 | -2.04 ± 0.57
CGCAAGCAAUAUUACGUGUU | -3.48 ± 0.11 | -2.9 ± 0.14
AGACAGCAAUAUUACGAGAC | -2.31 ± 0.58 | -1.59 ± 0.37
GGCUAGCAAUAUUACGCCCG | -4.06 ± 0.47 | -3.68 ± 0.26
GAGCAGCAAUAUUACGGCUC | -2.94 ± 1.1 | -0.693 ± 0.82
GAUGAGCAAUAUUACGAUAC | -3.7 ± 0.38 | -0.654 ± 0.2
UCACAGCAAUAUUACGCACC |  | -3.01 ± 1
CAUAAGCAAUAUUACGACUA | -1.94 ± 0.095 | -0.427 ± 0.078
GCAGAGCAAUAUUACGAGGA |  | -1.79 ± 0.82
UCAGAGCAAUAUUACGGAGU | -4.27 ± 0.73 | -4.11 ± 0.72
GUAGAGCAAUAUUACGCUGC |  | -1.39 ± 1.2
CAGGAGCAAUAUUACGUACA | -2.55 ± 0.49 | -1.73 ± 0.42
GUUGAGCAAUAUUACGCCGA |  | -1.69 ± 1.2
AAGAAGCAAUAUUACGAGUC | -2.53 ± 0.23 | -1.51 ± 0.25

Sequence | self-splicing fitness (ln) (30 °C) | self-splicing fitness (ln) (37 °C)
UGCGAGCAAUAUUACGCCGA | -1.97 ± 1.2 | 
GGUGAGCAAUAUUACGCCGC | -0.844 ± 1 | 
ACAGAGCAAUAUUACGACAC | -2.65 ± 0.79 | -1.68 ± 0.53
ACGAAGCAAUAUUACGACAA | -0.701 ± 0.2 | -0.985 ± 0.19
CUCUAGCAAUAUUACGGUAA | -2.38 ± 0.24 | -2.14 ± 0.21
UGAGAGCAAUAUUACGAAAC | -1.93 ± 0.69 | 
CUCCAGCAAUAUUACGCGCC | -2.7 ± 0.29 | -2.05 ± 0.38
AGGCAGCAAUAUUACGCCUC |  | -3.73 ± 1
UCAGAGCAAUAUUACGCUCG | -1.55 ± 1.2 | -0.78 ± 0.6
GCUGAGCAAUAUUACGCCAU | -4.04 ± 1.1 | -1.13 ± 0.93
UUUGAGCAAUAUUACGACGU | -3.44 ± 0.52 | -3.28 ± 0.6
UGAGAGCAAUAUUACGCUUC |  | -1.81 ± 0.67
UGAUAGCAAUAUUACGGGGC |  | -3.36 ± 0.6
CUCGAGCAAUAUUACGCCUC |  | -2.38 ± 0.65
GUUGAGCAAUAUUACGAAGC | -3.27 ± 0.79 | 
GACGAGCAAUAUUACGCUCC | -2.9 ± 0.29 | -1.91 ± 0.34
CAGGAGCAAUAUUACGCCGA |  | 0.0981 ± 1.2
UUCUAGCAAUAUUACGGUAU | -3.8 ± 0.54 | 
CAGUAGCAAUAUUACGUAUA | -1.62 ± 0.54 | 
UGUUAGCAAUAUUACGAUCC |  | -1.42 ± 0.62
CGAGAGCAAUAUUACGAGGA | -0.868 ± 1.4 | 
CCUAAGCAAUAUUACGUACU | -3.76 ± 0.43 | -3.01 ± 0.29
CUUUAGCAAUAUUACGAACC |  | -2.44 ± 0.84
AGAGAGCAAUAUUACGCCCC |  | -0.595 ± 1.4

Sequence | self-splicing fitness (ln) (30 °C) | self-splicing fitness (ln) (37 °C)
CGGGAGCAAUAUUACGACAA | -2.18 ± 0.84 | -1.69 ± 0.84
GGGCAGCAAUAUUACGCCCG |  | -1.73 ± 0.59
CCGUAGCAAUAUUACGCUGG | -4.58 ± 0.72 | -2.52 ± 0.55
UAUAAGCAAUAUUACGAGUC |  | -2.17 ± 0.78
UUAGAGCAAUAUUACGAAGC | -3 ± 0.76 | -2.12 ± 0.54
CUGGAGCAAUAUUACGGCGU |  | -2.76 ± 0.54
GCGAAGCAAUAUUACGAAAA |  | -2.94 ± 0.6
ACACAGCAAUAUUACGAUUC | -1.96 ± 0.049 | -1.32 ± 0.072
CGGGAGCAAUAUUACGGAAC | -3.06 ± 0.62 | -3.84 ± 1
UUGCAGCAAUAUUACGCGGC | -4.65 ± 0.72 | 
UAGGAGCAAUAUUACGCAGC | -4.73 ± 0.51 | 
CGGUAGCAAUAUUACGUAAU |  | -1.19 ± 0.64
GUCGAGCAAUAUUACGACCG |  | -0.902 ± 0.84
GAGCAGCAAUAUUACGCCCC |  | -1 ± 0.92
CAUGAGCAAUAUUACGUCUC | -2.83 ± 0.22 | -2.83 ± 0.53
GGCCAGCAAUAUUACGGCCC |  | -2.06 ± 0.57
GAGGAGCAAUAUUACGAAGU | -3.84 ± 0.52 | -1.76 ± 0.6
UAGUAGCAAUAUUACGAGGC |  | -3.27 ± 0.6
UCGGAGCAAUAUUACGUCAA | -2.81 ± 0.55 | 
GGGCAGCAAUAUUACGUCGG | -0.72 ± 0.12 | 0.392 ± 0.15
AUGUAGCAAUAUUACGGAAA |  | -2.5 ± 0.54
UAUAAGCAAUAUUACGAGGG | -3.42 ± 0.3 | -3.44 ± 0.6
UUUUAGCAAUAUUACGUACU | -2.12 ± 0.76 | 
AGAGAGCAAUAUUACGAAAA | -2.21 ± 1.1 | 

Sequence | self-splicing fitness (ln) (30 °C) | self-splicing fitness (ln) (37 °C)
GGUGAGCAAUAUUACGGACU | -2.44 ± 1.1 | -0.234 ± 0.69
AUGGAGCAAUAUUACGGACC |  | -0.61 ± 0.78
CGAGAGCAAUAUUACGUGGU | -4.72 ± 0.71 | 
ACGGAGCAAUAUUACGCCCU | -3.02 ± 0.77 | -1 ± 0.78
AAUUAGCAAUAUUACGCCAG | -2.88 ± 0.66 | 
CAGUAGCAAUAUUACGAGCU | -3.07 ± 0.28 | 0.322 ± 0.19
UGUGAGCAAUAUUACGGUAU |  | -2.4 ± 0.64
GAGGAGCAAUAUUACGGCUA | -1.75 ± 0.12 | -1.37 ± 0.11
CUAGAGCAAUAUUACGCCAC | -3.97 ± 1 | 
GUACAGCAAUAUUACGUGAU | -2.88 ± 0.07 | -0.556 ± 0.07
UGUCAGCAAUAUUACGCAAG | -4.4 ± 1 | -2.33 ± 0.55
AGUAAGCAAUAUUACGCCCG |  | -0.44 ± 1.4
ACAGAGCAAUAUUACGCUAC |  | -2.82 ± 0.54
CUCUAGCAAUAUUACGAUAC | -3.73 ± 0.59 | -2.12 ± 0.51
UCGGAGCAAUAUUACGCCGU | -2.37 ± 0.64 | -2.38 ± 0.64
UGUGAGCAAUAUUACGAAGU |  | -1.69 ± 0.82
GUCAAGCAAUAUUACGGAUG | -2.64 ± 0.12 | -0.795 ± 0.11
UCUGAGCAAUAUUACGCGCA |  | -3.24 ± 0.52
CUUGAGCAAUAUUACGAGAG | -4.16 ± 1 | 
CAGGAGCAAUAUUACGCGAU |  | -3.09 ± 1
CACAAGCAAUAUUACGGGUC | -3.43 ± 0.1 | -2.2 ± 0.12
AAAUAGCAAUAUUACGUAAG | -1.37 ± 0.078 | -0.721 ± 0.096
UCUAAGCAAUAUUACGUACA | -1.57 ± 0.13 | -1.13 ± 0.13
CUAGAGCAAUAUUACGGACC | -2.46 ± 0.84 | 

As entered above:
self-splicing fitness (ln) (30 °C), UAGGAGCAAUAUUACGCAGC reads -4.73 ± 0.51
self-splicing fitness (ln) (30 °C), CUCUAGCAAUAUUACGAUAC reads -3.73 ± 0.59
self-splicing fitness (ln) (37 °C), AUGGAGCAAUAUUACGGACC reads -0.61 ± 0.78
self-splicing fitness (ln) (30 °C), GGUGAGCAAUAUUACGCCGC reads -0.844 ± 1
self-splicing fitness (ln) (30 °C), UUUUAGCAAUAUUACGUACU reads -2.12 ± 0.76
self-splicing fitness (ln) (37 °C), CCUAAGCAAUAUUACGUACU reads -3.01 ± 0.29
self-splicing fitness (ln) (37 °C), CAUAAGCAAUAUUACGACUA reads -0.427 ± 0.078

Remaining list, next part

Sequence | self-splicing fitness (ln) (30 °C) | self-splicing fitness (ln) (37 °C)
GACGAGCAAUAUUACGACCA | -2.79 ± 0.54 | -2.66 ± 0.77
UCUGAGCAAUAUUACGAUUC |  | -3.33 ± 1
UGAGAGCAAUAUUACGACGA | -2.64 ± 0.5 | -0.482 ± 0.6
AAGGAGCAAUAUUACGACCC | -0.868 ± 1.4 | -1.15 ± 0.66
AAGGAGCAAUAUUACGCCGC | -4.55 ± 0.59 | 
UCUGAGCAAUAUUACGCCGC | -0.631 ± 1.2 | 
CACGAGCAAUAUUACGAGAA | -3.13 ± 1 | 
CCACAGCAAUAUUACGAUCC |  | -2.93 ± 0.61
UUUGAGCAAUAUUACGAGUU | -2.86 ± 0.51 | 
GUGGAGCAAUAUUACGAAGC |  | -1.62 ± 1.1
AUGCAGCAAUAUUACGGCCC | -0.0496 ± 0.14 | 0.777 ± 0.19
CUCUAGCAAUAUUACGACUG | -1.68 ± 0.15 | -0.621 ± 0.18
UGAUAGCAAUAUUACGAUCA | -2.14 ± 0.65 | 0.406 ± 1.2
GCGUAGCAAUAUUACGCGAA | -2.65 ± 1.1 | 
GGACAGCAAUAUUACGACCC |  | 0.0981 ± 1.2
UCGAAGCAAUAUUACGUCGA | -3.65 ± 0.47 | -1.78 ± 0.19
ACAGAGCAAUAUUACGAAAC |  | -1.94 ± 0.57
CGUAAGCAAUAUUACGCUGC | -4.84 ± 0.72 | 
CGGAAGCAAUAUUACGUCGC | -3.3 ± 0.74 | -1.98 ± 1.1
AUAGAGCAAUAUUACGCCAC | -3.49 ± 0.74 | -0.792 ± 0.52
